{"sequences": {"note": "Protein sequences, listed by entry. Tags and fused reporters are not part of them.", "UniProt Q8NER1, whole entry, looked up": "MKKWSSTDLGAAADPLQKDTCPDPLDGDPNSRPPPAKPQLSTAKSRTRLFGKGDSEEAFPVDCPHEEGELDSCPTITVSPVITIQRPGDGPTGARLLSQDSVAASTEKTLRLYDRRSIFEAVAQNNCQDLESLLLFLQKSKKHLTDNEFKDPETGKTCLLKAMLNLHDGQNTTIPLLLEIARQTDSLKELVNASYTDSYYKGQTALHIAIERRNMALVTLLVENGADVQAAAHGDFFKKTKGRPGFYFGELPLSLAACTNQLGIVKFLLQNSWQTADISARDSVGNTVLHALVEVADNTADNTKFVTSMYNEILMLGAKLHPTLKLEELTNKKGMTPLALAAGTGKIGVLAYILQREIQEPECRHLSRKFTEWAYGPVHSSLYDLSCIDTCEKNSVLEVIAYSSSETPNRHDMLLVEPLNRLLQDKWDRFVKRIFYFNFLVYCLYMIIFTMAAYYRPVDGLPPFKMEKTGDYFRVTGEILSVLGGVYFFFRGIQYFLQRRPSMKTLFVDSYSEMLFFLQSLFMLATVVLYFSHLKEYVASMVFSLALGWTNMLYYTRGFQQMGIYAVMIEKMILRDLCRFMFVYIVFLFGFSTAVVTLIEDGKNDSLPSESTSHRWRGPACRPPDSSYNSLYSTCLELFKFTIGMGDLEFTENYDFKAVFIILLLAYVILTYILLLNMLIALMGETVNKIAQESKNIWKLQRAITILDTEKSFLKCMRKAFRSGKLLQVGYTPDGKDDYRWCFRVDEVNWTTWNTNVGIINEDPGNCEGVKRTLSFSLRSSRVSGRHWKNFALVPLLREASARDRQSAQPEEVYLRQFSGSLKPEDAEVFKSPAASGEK"}, "source": "PubChem BioAssay AID540275", "about": "(National Center for Advancing Translational Sciences (NCATS), 2011)", "note": "In all, about 320,000 compounds went through this assay and about 620 (0.19%) were called active. Inconclusive results, whose numbers are uncertain, are shown with a selection of clear calls. Rule as the data show it: active = activation above about 80%; inconclusive = between about 30% and that limit; inactive = weaker than that."}
{"target": "Transient receptor potential cation channel subfamily V member 1 (Homo sapiens) (UniProt Q8NER1)", "assay": "HTS Assay for Compounds that Act as Agonists of the Vanilloid Receptor 1; also: 0% is about no effect", "conditions": "TRPV1-expressing cells, Fluo-8 calcium influx, agonist mode; at 8.33 µM, stronger effect = higher value", "procedure,_shortened": "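Cells expressing TRPV1 were dye-loaded with Fluo-8 and read kinetically: 10 s baseline, 3 min after compound (agonist portion), then 2 min after EC20 capsaicin (allosteric enhancer portion). Calcium-bound dye fluorescence at 480/520 nm.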"}
{"smiles": "CC(=O)C12OC1CC1C3CCC4=CC(=O)CCC4(C)C3CCC12C", "note": "(stereo unspecified)", "activation": "inconclusive: 75.5%"}
{"smiles": "CCCCC1CCC(C(=O)N(C)CC(=O)Nc2cccc(F)c2)CC1", "note": "(stereo unspecified)", "activation": "inconclusive: 42.1%"}
{"smiles": "COc1ccc(-c2nn(-c3ccccc3C)cc2CNC(C)c2cn(C)nc2C)cc1F", "note": "(stereo unspecified)", "activation": "inconclusive: 43.3%"}
{"smiles": "O=C(Nc1cccc(Cl)c1Cl)C1CC(=O)N(c2ccc(Br)cc2)C1", "note": "(stereo unspecified)", "activation": "inconclusive: 37.7%"}
{"smiles": "Cc1ccc(Cn2nc(C)cc2C(=O)Nc2ccc(Cl)cc2)cc1", "activation": "inconclusive: 55.6%"}
{"smiles": "Cc1ccc(S(=O)(=O)NC2=NCN(C)CN2)cc1[N+](=O)[O-]", "activation": "inconclusive: 41.2%"}
{"smiles": "O=C(Nc1cccc(S(=O)(=O)N2CCCCC2)c1)c1ccc2ncsc2c1", "activation": "active: 84.8%"}
{"smiles": "Cc1sc2ncn(/N=C/c3cn(-c4ccccc4)nc3-c3ccccc3)c(=O)c2c1C", "activation": "inactive: -1.64%"}
{"smiles": "COc1ccc(N2CSC3=C(C#N)C(c4cc(OC)c(OC)cc4OC)CC(=O)N3C2)c(OC)c1", "note": "(stereo unspecified)", "activation": "inactive: 0.113%"}
{"smiles": "O=C(Nc1ccc2snnc2c1)N1CCSCC1", "activation": "inconclusive: 53.2%"}
{"smiles": "COc1ccc(CCC(=O)N2CCc3ccccc32)cc1", "activation": "inconclusive: 39.1%"}
{"smiles": "O=C1C=C(NCc2ccc(Cl)c(Cl)c2)CC1", "activation": "inconclusive: 46.5%"}
{"smiles": "CC(C)c1ccccc1NC(=S)NCc1ccccc1F", "activation": "inconclusive: 35.5%"}
{"smiles": "COc1ccc(-c2oc(NC(=O)c3ccc(C)cc3)c(C#N)c2-c2ccc(OC)cc2)cc1", "activation": "inconclusive: 43.6%"}
{"smiles": "CC1CN(C(=O)c2ccc(-c3cccc(C(F)(F)F)c3)o2)CC(C)O1", "note": "(stereo unspecified)", "activation": "inconclusive: 57.7%"}
{"smiles": "O=C(NC1=NCCS1)c1cc(-c2cccc(Br)c2)nc2ccccc12", "activation": "inconclusive: 34.4%"}
{"smiles": "c1ccc(CCNc2ncnc3ccccc23)cc1", "activation": "inconclusive: 65.3%"}
{"smiles": "CCCCCCCNC(=O)c1ccc(N2CCC3(CC2)OCCO3)c([N+](=O)[O-])c1", "activation": "inactive: 23.4%"}
{"smiles": "O=C(NCCCc1ccccc1)Nc1cccc(Cl)c1", "activation": "inconclusive: 55.9%"}
{"smiles": "CN1CCc2c(sc(NC(=O)CSc3ccccc3)c2-c2nc3ccccc3s2)C1", "activation": "inconclusive: 44%"}
{"smiles": "Cc1ccccc1-c1ccc(/C=C2/SC(N3CCOCC3)=NC2=O)o1", "activation": "active: 84.5%"}
{"smiles": "CCC(C)NC(=O)c1ccc(CSCc2cccc(F)c2)o1", "note": "(stereo unspecified)", "activation": "inconclusive: 44.5%"}
{"smiles": "CCNC(=O)CCc1nc(-c2ccc(C(C)(C)C)cc2)no1", "activation": "inconclusive: 62.1%"}
{"smiles": "COC(=O)c1cc(=O)n(-c2ccccc2)c(=Nc2ccccc2)s1", "activation": "inactive: 11.9%"}
{"smiles": "O=C(N/N=C/c1cccc([N+](=O)[O-])c1)c1ccc(CN2CCOCC2)cc1", "activation": "inconclusive: 38.6%"}
{"smiles": "CCOC(=O)/C=C1\\NC(C)(C)Cc2cc(OC)c(O)cc21", "activation": "inconclusive: 37.3%"}
{"smiles": "Cc1ccc(-n2nc(C)c3c(C)c(CCC(=O)NCc4ccccc4)c(C)nc32)cc1", "activation": "active: 81.8%"}
{"smiles": "Cc1ccc2oc(Nc3nc(C)c(C)c(C)n3)nc2c1", "activation": "inactive: 4.52%"}
{"smiles": "C=COCCCNc1ncnc2sc(-c3ccccc3)cc12", "activation": "inconclusive: 30.7%"}
{"smiles": "CCOC(=O)N1CCN(CC(=O)Nc2ccc([N+](=O)[O-])cc2C(=O)Nc2ccccc2F)CC1", "activation": "inactive: 3.86%"}
{"smiles": "Cc1ccccc1CCN(C(=O)c1csnn1)C(C(=O)NC1CCCC1)c1ccco1", "note": "(stereo unspecified)", "activation": "inconclusive: 34.6%"}
{"smiles": "Cc1ccn2cc(C(=O)N3CCCC(Nc4ccc(F)cc4)C3)nc2c1", "note": "(stereo unspecified)", "activation": "inconclusive: 46.3%"}
{"smiles": "COC(=O)c1ccccc1NC(=O)C1CCN(C(=O)Cc2ccccc2)CC1", "activation": "inconclusive: 44.8%"}
{"smiles": "Cc1ccc(C)c(NC(=S)NCc2ccc3[nH]c4c(c3c2)CCCC4)c1", "activation": "inactive: 1.75%"}
{"smiles": "CC(C)(C)OC(=O)N[C@@H](/C=C/c1ccccc1)C(=O)OC(C)(C)C", "activation": "inconclusive: 58.4%"}
{"smiles": "CN1CCS/C1=C/C=C1\\SC(=S)N(CC(=O)O)C1=O", "activation": "inactive: 17.4%"}
{"smiles": "CCc1ccccc1NNC(=O)c1cc(C)on1", "activation": "inactive: 0.457%"}
{"smiles": "CCCCc1cc(=O)oc2cc(C)cc(OCC(=O)O)c12", "activation": "inactive: 0.488%"}
{"smiles": "Cc1cccc(/C=N/NC(=O)c2ccc3c(c2)OCCO3)c1O", "activation": "inconclusive: 36.8%"}
{"smiles": "CCOC(=O)C(=CNc1cc(C)nn1-c1ccc(C)cc1)C(=O)OCC", "activation": "inconclusive: 35.6%"}
{"smiles": "Cc1cc(NC(=S)N(CCCN2CCOCC2)Cc2ccco2)ccc1Cl", "activation": "inconclusive: 36.6%"}
{"smiles": "CC(=O)/C(=N\\Nc1ccccc1)Sc1nnc(-c2ccccc2)n1-c1ccccc1", "activation": "inconclusive: 50.2%"}
{"smiles": "C/C(=N\\NC(=O)c1ccoc1C)c1ccc(Br)s1", "activation": "inconclusive: 38.6%"}
{"smiles": "O=C(CSCc1ccccc1)NCCc1ccc(F)cc1", "activation": "inconclusive: 36.6%"}
{"smiles": "COC(=O)c1cc(CNC(=O)c2cccc(Cl)c2)ccc1OC", "activation": "inconclusive: 53.6%"}
{"smiles": "O=C(CCN1CCOCC1)c1ccc(N2CCCCC2)cc1", "activation": "inconclusive: 35.1%"}
{"smiles": "N#CC(C#N)=NNc1ccc([N+](=O)[O-])cc1", "activation": "inactive: -0.221%"}
{"smiles": "CN1CCN(/N=C/c2ccc(N(c3ccccc3)c3ccccc3)cc2)CC1", "activation": "inactive: 1.33%"}
{"smiles": "COc1ccc(-c2nc[nH]c2[N+](=O)[O-])cc1", "activation": "inactive: 1.77%"}
{"smiles": "COc1ccccc1-c1nn2c(-c3ccc(C(C)(C)C)cc3)nnc2s1", "activation": "inactive: -2.03%"}
{"smiles": "O=C(COC(=O)C12CC3CC(CC(Cl)(C3)C1)C2)Nc1ccc2[nH]c(=O)[nH]c2c1", "activation": "inconclusive: 64.8%"}
{"smiles": "Cc1ccc(-c2nc(C#N)c(N3CCC(C)CC3)o2)cc1", "activation": "inconclusive: 41.5%"}
{"smiles": "COc1cccc(C(C)NC(=S)NCc2ccc(F)cc2)c1", "note": "(stereo unspecified)", "activation": "inconclusive: 61.5%"}
{"smiles": "CCN(CC)P(=O)(Nc1ccc(C)cc1Br)c1ccc(N(C)C)cc1NC(=O)c1ccco1", "note": "(stereo unspecified)", "activation": "inconclusive: 59.9%"}
{"smiles": "Fc1ccc(CNC(=S)NCc2cccc(Cl)c2)cc1", "activation": "inconclusive: 46.9%"}
{"smiles": "COc1ccc(S(=O)(=O)Nc2ccc(Cc3ccncc3)cc2)cc1C", "activation": "inactive: 0.167%"}
{"smiles": "NS(=O)(=O)c1ccc(NC(=O)c2ccc3c(c2)CCCC3)cc1", "activation": "active: 91.7%"}
{"smiles": "COc1ccc(NC(=O)C2C(=O)N(C)C3(C)CC2c2ccccc2O3)cc1", "note": "(stereo unspecified)", "activation": "inactive: 13.7%"}
{"smiles": "N#C/C(=N\\Nc1ccc(Br)cc1)C(=N)N1CCOCC1", "activation": "inconclusive: 55.5%"}
{"smiles": "CC(C)c1ccc(NC(=O)CCN2C(=O)[C@@H]3Cc4ccccc4CN3C2=O)cc1", "activation": "inconclusive: 45.7%"}
{"smiles": "Cc1cccc(CC(=O)NCC2CCCCC2)c1", "activation": "inconclusive: 63.1%"}
{"smiles": "Cc1cc(N2CCN(c3nc4ccccc4s3)CC2)n2ncnc2n1", "activation": "inactive: 5.23%"}
{"smiles": "O=C(Cc1ccccc1)NCCCc1ccccc1", "activation": "inactive: -0.437%"}
{"smiles": "Cc1ccn(CC(=O)N2CCCC(Nc3ccc(F)c(F)c3)C2)n1", "note": "(stereo unspecified)", "activation": "inconclusive: 53%"}
{"smiles": "COCC1CCN(C(=O)C2CCC(=O)N(Cc3cccc(F)c3)C2)CC1", "note": "(stereo unspecified)", "activation": "inactive: 2.56%"}
{"smiles": "CCN(CC(=O)Nc1c(C(=O)OC)[nH]c2ccc(C)cc12)c1ccc2c(c1)OCO2", "activation": "inconclusive: 49.6%"}
{"smiles": "NS(=O)(=O)c1ccc(NC(=O)/C=C/c2cccs2)cc1", "activation": "inconclusive: 62.8%"}
{"smiles": "Cc1ccc(-c2cnn(-c3ccccc3)c2N)cc1", "activation": "inconclusive: 44.5%"}
{"smiles": "CCOC(=O)c1c(NC(=O)c2ccoc2C)sc2c1CCC2", "activation": "inactive: 0.751%"}
{"smiles": "CC1CCN(S(=O)(=O)N2CCCC(C(=O)NCc3ccccc3Cl)C2)CC1", "note": "(stereo unspecified)", "activation": "inconclusive: 31%"}
{"smiles": "Cn1nnc2cc(C(=O)Nc3ccc(Cl)cc3)ccc21", "activation": "inconclusive: 57.5%"}
{"smiles": "CCOC(=O)[C@H]1[C@H]2COc3ccc(C)cc3[C@@H]2N2C(=O)CN(Cc3ccc(C)cc3)C(=O)[C@@]12C", "activation": "inconclusive: 35.8%"}
{"smiles": "Cc1csc(NC(=O)C2CCN(S(=O)(=O)c3ccccc3)CC2)n1", "activation": "inactive: 0.443%"}
{"smiles": "S=C(NC1CC1)N1CCN(c2ccc(Cl)cc2)CC1", "activation": "inconclusive: 59%"}
{"smiles": "Clc1ccc(CSc2nnc(-c3ccncc3)s2)cc1", "activation": "inconclusive: 55.3%"}
{"smiles": "Cc1cccc(C(=O)O/N=C/c2ccc(Br)cc2)c1", "activation": "inconclusive: 32.4%"}
{"smiles": "CCOC(=O)N1CCN(c2ccc([N+](=O)[O-])cc2F)CC1C", "note": "(stereo unspecified)", "activation": "inconclusive: 39.8%"}
{"smiles": "CN(C)CCCN(C(=O)c1ccc([N+](=O)[O-])s1)c1nc2cc3c(cc2s1)OCCO3", "activation": "inactive: -1.84%"}
{"smiles": "COc1ccc(NC(=O)CCCN2C(=O)C(c3ccccc3)Oc3cccnc32)c(OC)c1", "note": "(stereo unspecified)", "activation": "inconclusive: 32.5%"}
{"smiles": "CC1CN(c2nc3c(c(=O)n(Cc4ccc(Cl)cc4)c(=O)n3C)n2C)CC(C)O1", "note": "(stereo unspecified)", "activation": "active: 106%"}
{"smiles": "C[C@H](NC(=O)c1nc[nH]c1C(=O)NCc1ccc(CNC(=O)OC(C)(C)C)cc1)c1ccccc1", "activation": "inactive: 23.1%"}
{"smiles": "Cc1ccc(Cn2nc3c(cc2=O)CCc2ccccc2-3)cc1", "activation": "inconclusive: 44.1%"}
{"smiles": "CN(C)S(=O)(=O)c1cccc(NC(=O)c2ccc(OC(F)(F)F)cc2)c1", "activation": "inconclusive: 55.8%"}
{"smiles": "CCOC(=O)N1CCN(C(=O)CN(Cc2ccc(Cl)cc2)S(=O)(=O)c2ccccc2)CC1", "activation": "inactive: 5.61%"}
{"smiles": "O=C(NCCc1cccnc1)c1cc(COc2ccc(F)cc2F)on1", "activation": "inconclusive: 34.5%"}
{"smiles": "Cc1ccc2[nH]c(C)c(/C=C/c3cc[n+](C)cc3)c2c1", "activation": "inactive: -6.76%"}
{"smiles": "COCc1nnc(NC(=O)CSCc2ccccc2)s1", "activation": "inactive: 7.39%"}
{"smiles": "C/C(=N\\NC(=S)NCc1ccccc1)c1ccccc1", "activation": "inactive: 10.5%"}
{"smiles": "O=C(NCC1CCCO1)c1ccccc1OCc1ccc(Cl)cc1", "note": "(stereo unspecified)", "activation": "inconclusive: 42.7%"}
{"smiles": "CCOC(=O)C1=C(CC)Nc2ccccc2N=C1NC(=O)c1ccc(S(=O)(=O)N2CCOCC2)cc1", "activation": "inconclusive: 37.7%"}
{"smiles": "Cc1ccc(NC(=O)CNS(=O)(=O)c2cccs2)cc1F", "activation": "inconclusive: 32.2%"}
